According to patent publication US20160272721A1:
Results are given in words; binding and its absence hold for the method and conditions named. Some binding calls cover weakened binding; strength is not graded here.

Assays:
[1] = molecular target: T1, AIMP2-DX2 protein (human) (UniProt Q13155); experiment: Western blot of H460 cell lysate (FIG. 18)
T1 sequence: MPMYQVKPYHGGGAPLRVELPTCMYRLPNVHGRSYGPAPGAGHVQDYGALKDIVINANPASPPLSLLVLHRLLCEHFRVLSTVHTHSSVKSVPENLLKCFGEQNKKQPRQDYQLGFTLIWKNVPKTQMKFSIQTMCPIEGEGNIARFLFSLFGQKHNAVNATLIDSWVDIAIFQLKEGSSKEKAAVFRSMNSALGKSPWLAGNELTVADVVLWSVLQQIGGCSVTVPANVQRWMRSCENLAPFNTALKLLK

[2] = molecular target: T1, AIMP2-DX2 protein (human); experiment: Western blot of H460 lysates after siRNA knock-down of AIMP2-DX2 (FIG. 19a)
[3] = molecular target: T1, AIMP2-DX2 protein (human); experiment: Western blot of H460 cell lysates (FIG. 22)
[4] = molecular target: T1, AIMP2-DX2 protein (human); experiment: Western blot of SW460 cell lysate with periplasmic extract as primary antibody

Measured: binding

B1: H5 Fab (Fab, V domains shown)
VH: QEQLVESGGGLVTPGGTLTLTCTASGFTISSYHMTWVRQAPGKGLEWIGVISNSGGTSYANWAKGRFTISKTSTTVDLKITSPTTEDTATYFCVRGVPGINSNLWGQGTLVTISS
VL: AQVLTQTPSSVSAAVGGTVTINCQSSQSVYSGNWLAWYQQKPGQPPKLLIYSTSTLASGVPSRFKGSGSGTQFTLTVSDLECDDAATYYCAGDYDGYKNAFGGGTKVVVKR
binds: all assays above
